# Source: the supplement of paper PMC10849652
# Protein sequences, listed by entry. Tags and fused reporters are not part of them. Lines headed by an entry give the natural chain unless they say otherwise; changes in a name come on top.
# UniProt Q86WB0: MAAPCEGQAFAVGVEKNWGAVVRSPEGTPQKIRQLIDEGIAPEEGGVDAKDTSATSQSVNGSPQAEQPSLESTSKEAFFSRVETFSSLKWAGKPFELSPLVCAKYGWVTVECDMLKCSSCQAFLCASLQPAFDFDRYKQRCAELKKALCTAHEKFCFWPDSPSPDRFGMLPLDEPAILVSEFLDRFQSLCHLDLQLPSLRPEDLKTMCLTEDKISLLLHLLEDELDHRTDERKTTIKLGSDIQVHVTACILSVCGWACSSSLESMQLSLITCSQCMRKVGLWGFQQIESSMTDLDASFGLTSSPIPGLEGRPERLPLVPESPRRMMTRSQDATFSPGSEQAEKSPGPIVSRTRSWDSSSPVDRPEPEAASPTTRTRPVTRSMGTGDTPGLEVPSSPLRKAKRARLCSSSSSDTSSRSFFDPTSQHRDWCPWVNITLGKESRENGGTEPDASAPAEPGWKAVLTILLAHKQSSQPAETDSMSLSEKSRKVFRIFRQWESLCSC
# UniProt Q5VVQ6: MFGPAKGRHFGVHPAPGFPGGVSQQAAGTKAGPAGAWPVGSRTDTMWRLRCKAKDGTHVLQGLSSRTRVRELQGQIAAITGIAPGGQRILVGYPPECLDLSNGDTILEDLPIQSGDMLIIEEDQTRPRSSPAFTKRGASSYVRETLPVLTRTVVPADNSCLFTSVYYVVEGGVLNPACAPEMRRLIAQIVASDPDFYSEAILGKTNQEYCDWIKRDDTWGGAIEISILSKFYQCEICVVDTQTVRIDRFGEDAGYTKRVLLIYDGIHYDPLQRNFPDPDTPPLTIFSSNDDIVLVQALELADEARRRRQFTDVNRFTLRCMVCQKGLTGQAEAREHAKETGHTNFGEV
# UniProt Q969M3: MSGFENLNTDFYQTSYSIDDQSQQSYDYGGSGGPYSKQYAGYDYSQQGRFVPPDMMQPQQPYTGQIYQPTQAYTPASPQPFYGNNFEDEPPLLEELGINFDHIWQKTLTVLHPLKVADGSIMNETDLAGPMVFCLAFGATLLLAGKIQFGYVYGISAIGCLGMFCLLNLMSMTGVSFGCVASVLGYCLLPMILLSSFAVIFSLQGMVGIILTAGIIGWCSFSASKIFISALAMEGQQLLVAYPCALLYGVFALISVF
# UniProt P63104: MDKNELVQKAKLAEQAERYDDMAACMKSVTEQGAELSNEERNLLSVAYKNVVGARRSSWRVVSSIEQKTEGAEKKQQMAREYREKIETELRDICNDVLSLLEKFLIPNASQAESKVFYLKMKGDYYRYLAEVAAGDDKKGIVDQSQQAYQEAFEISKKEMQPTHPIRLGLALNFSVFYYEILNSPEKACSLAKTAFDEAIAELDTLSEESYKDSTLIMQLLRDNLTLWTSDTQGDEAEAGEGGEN
# UniProt P49750: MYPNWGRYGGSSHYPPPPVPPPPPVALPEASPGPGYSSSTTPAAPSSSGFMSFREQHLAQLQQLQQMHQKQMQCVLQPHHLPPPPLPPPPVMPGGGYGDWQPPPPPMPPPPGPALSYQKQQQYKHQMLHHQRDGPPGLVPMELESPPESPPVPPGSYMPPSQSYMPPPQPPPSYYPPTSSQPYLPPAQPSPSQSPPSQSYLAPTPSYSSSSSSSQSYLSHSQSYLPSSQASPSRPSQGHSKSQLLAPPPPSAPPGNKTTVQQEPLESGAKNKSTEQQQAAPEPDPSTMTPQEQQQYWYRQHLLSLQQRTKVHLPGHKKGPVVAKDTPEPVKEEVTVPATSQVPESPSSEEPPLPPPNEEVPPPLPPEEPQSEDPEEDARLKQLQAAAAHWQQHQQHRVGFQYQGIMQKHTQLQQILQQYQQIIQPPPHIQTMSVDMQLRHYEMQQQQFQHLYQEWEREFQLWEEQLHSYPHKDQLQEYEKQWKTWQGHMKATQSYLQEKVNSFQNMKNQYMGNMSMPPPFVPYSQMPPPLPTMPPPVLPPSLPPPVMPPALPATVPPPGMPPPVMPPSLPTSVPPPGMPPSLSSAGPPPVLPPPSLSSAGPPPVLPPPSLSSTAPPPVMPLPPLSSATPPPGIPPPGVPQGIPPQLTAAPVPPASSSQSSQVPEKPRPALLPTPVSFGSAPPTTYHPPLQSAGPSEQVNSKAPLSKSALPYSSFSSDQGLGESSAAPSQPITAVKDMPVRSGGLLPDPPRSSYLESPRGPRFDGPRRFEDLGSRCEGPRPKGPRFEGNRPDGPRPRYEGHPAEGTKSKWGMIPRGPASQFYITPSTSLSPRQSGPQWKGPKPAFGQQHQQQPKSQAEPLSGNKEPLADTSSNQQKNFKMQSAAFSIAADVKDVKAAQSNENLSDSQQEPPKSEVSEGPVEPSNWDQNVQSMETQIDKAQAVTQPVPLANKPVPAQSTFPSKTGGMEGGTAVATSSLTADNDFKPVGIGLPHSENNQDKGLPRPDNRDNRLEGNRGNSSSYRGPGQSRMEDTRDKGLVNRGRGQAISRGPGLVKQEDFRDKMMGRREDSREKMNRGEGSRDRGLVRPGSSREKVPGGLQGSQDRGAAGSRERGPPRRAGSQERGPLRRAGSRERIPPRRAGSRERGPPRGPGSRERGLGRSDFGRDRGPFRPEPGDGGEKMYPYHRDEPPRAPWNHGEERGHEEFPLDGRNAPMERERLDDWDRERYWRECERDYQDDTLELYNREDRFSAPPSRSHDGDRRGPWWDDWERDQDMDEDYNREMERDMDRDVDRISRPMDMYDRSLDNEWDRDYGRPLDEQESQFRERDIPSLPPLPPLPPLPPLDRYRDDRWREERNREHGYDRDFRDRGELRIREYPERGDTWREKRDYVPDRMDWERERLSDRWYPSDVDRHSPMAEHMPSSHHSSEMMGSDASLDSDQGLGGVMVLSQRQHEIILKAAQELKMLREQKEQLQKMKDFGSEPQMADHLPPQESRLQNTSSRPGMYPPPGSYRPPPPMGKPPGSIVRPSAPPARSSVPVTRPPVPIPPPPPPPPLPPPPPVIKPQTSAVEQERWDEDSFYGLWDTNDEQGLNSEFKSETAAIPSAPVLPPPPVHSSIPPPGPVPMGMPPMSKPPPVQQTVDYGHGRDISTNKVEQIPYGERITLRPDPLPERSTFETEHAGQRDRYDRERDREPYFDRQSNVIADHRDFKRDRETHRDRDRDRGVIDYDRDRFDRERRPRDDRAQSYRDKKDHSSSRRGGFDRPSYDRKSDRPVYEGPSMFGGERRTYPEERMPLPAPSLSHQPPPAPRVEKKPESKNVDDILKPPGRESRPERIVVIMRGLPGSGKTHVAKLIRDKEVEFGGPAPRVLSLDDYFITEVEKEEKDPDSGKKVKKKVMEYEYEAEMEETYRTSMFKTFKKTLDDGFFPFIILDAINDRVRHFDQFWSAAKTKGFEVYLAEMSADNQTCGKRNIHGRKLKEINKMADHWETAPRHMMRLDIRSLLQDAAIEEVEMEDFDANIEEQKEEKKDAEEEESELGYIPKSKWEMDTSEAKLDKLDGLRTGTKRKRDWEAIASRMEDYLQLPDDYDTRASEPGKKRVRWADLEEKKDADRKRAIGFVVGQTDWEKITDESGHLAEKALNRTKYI
# UniProt Q9C0B5: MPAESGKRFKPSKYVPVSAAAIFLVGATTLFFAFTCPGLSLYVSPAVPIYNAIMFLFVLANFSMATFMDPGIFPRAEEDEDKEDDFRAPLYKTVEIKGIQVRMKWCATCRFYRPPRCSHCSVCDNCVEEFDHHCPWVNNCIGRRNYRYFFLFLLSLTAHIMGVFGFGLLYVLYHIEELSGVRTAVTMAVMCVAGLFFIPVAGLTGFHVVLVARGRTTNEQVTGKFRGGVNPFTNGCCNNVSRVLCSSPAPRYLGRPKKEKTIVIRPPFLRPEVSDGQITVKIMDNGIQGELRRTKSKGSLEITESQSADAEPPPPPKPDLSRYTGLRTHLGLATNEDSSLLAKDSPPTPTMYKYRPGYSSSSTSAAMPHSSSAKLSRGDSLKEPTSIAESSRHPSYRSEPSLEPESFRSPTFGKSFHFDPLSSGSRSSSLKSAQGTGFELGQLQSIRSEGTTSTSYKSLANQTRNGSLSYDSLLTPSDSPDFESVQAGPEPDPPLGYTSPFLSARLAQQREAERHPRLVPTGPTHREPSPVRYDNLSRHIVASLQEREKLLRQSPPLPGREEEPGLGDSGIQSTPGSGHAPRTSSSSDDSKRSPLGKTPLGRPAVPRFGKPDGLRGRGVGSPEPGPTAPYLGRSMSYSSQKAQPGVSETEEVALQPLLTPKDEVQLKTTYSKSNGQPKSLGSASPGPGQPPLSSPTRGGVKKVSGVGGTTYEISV
# UniProt Q9NQW7: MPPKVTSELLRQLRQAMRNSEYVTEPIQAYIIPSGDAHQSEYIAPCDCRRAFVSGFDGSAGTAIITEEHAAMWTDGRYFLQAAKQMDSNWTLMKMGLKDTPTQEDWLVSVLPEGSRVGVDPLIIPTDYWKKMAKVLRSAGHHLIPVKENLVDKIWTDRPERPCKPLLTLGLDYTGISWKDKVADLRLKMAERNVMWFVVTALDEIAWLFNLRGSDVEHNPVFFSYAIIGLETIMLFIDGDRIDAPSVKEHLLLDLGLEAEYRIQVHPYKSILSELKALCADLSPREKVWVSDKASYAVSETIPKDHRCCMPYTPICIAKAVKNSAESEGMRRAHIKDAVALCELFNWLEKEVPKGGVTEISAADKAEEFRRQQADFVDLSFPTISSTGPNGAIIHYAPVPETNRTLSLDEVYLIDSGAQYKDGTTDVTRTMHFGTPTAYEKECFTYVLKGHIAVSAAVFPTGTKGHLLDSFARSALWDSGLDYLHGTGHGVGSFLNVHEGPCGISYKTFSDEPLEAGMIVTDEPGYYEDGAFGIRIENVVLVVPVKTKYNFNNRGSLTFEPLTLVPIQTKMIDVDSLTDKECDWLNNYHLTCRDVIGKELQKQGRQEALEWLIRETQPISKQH
# UniProt O75362: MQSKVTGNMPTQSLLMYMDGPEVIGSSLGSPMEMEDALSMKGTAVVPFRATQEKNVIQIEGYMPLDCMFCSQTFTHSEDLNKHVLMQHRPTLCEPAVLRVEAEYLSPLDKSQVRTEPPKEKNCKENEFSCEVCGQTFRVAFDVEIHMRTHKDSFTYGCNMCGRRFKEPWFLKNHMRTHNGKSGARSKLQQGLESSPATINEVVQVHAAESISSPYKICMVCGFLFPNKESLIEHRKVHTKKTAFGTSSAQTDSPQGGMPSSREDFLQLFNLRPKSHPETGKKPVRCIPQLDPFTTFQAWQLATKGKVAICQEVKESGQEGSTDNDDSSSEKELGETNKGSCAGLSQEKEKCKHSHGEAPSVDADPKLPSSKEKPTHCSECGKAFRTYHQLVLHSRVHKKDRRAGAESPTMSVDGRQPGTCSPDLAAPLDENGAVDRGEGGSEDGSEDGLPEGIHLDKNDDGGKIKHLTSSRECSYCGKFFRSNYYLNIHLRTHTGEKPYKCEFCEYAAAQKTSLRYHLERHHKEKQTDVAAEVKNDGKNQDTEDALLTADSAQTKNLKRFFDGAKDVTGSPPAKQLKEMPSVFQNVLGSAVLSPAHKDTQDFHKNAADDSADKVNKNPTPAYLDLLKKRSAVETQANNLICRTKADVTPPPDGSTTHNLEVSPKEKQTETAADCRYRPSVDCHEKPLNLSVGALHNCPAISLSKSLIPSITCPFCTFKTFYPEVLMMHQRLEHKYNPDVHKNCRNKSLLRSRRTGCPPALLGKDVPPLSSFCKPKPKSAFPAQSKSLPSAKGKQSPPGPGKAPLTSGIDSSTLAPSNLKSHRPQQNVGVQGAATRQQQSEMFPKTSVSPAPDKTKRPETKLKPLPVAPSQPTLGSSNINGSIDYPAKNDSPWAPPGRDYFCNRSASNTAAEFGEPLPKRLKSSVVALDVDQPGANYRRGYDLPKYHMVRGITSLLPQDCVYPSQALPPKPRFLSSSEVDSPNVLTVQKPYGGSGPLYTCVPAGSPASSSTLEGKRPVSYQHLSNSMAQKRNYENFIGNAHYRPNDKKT
# UniProt Q6FIF0: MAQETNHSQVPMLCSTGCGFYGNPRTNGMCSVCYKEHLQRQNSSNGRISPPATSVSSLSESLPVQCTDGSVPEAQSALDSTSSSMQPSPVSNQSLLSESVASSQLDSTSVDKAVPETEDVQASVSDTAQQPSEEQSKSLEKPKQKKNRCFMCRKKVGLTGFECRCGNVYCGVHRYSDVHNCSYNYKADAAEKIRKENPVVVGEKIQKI
# UniProt Q8N5P1: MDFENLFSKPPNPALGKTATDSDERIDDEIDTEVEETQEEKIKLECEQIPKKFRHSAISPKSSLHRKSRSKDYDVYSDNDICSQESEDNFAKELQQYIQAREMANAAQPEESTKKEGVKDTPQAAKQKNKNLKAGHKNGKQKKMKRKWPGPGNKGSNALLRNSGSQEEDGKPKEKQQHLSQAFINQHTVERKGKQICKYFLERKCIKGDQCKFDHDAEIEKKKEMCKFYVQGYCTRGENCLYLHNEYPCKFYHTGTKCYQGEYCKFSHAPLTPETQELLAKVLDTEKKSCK
# UniProt O76080: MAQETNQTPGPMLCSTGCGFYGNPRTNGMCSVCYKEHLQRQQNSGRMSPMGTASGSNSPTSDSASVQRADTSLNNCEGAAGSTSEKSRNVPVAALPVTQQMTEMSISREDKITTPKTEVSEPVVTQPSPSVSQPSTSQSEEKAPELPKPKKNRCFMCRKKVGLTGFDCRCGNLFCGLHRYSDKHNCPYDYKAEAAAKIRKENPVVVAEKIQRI
# The list shows a part of the results.
# Compound: CC1=NC(=CC=C1)C2=C(N=C(N2)C(C)(C)C)C3=CC4=NC=CN=C4C=C3
# Assay: log2 fold change, soluble protein after heating vs DMSO (PISA); higher = thermal stabilisation; K562 cells, 10 uM, 30 min; active = over 0.2 and 3.5 SD of the protein, either way, in both replicates (recomputed)
# Method in brief: (§1)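 Thermal stability values are relative to control samples and come from duplicates. They are expressed as log2 fold changes. For measurement, K562 cells (2×10^6 cells/mL) received 10 μM compound for 30 min, and aliquots were heated for 3 min over 48°C-58°C, pooled, and extracted at 4°C in PBS with 0.5% NP-40. Soluble protein, the supernatant after 21,000xg for 90 min, was quantified by TMTpro 16plex LC-MS/MS with equalised channel sums.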
row,Target,log2 fold change
1,ZC3HC1 (UniProt Q86WB0),inactive: 0.119
2,ZC3H18 (UniProt Q86VM9),inactive: -0.029
3,YOD1 (UniProt Q5VVQ6),inactive: 0.026
4,YIPF5 isoform 3 (UniProt Q969M3),inactive: -0.073
5,YIPF6 (UniProt Q96EC8),inactive: 0.047
6,XPO5 (UniProt Q9HAV4),inactive: 0.031
7,YWHAZ (UniProt P63104),inactive: 0.009
8,XPO6 (UniProt Q96QU8),inactive: -0.369
9,YLPM1 (UniProt P49750),inactive: 0.043
10,ZDHHC5 (UniProt Q9C0B5),inactive: -0.013
11,XPNPEP1 isoform 3 (UniProt Q9NQW7),inactive: 0.036
12,ZNF217 (UniProt O75362),inactive: 0.01
13,ZFAND6 (UniProt Q6FIF0),inactive: -0.088
14,ZC3H8 (UniProt Q8N5P1),inactive: -0.176
15,YBX3 isoform 2 (UniProt P16989),inactive: -0.183

# Compound: CCCCN(Cc1ccc(C(=O)NO)cc1)C(=O)Nc1ccccc1 [Nexturastat A]
# Assay: as above
# Method in brief: as §1
row,Target,log2 fold change
1,YJU2 (UniProt Q9BW85),inactive: -0.127
2,ZFAND5 (UniProt O76080),active: 0.371
3,ZNF24 (UniProt P17028),inactive: 0.17
4,ZFPL1 (UniProt O95159),inactive: -0.064
5,ZMYM3 (UniProt Q14202),inactive: 0.07
6,XRCC5 (UniProt P13010),inactive: 0.033
7,ZMAT2 (UniProt Q96NC0),inactive: -0.011
8,YARS (UniProt P54577),inactive: 0.079
9,YIPF4 (UniProt Q9BSR8),inactive: 0.021
10,ZFP91 (UniProt Q96JP5),inactive: 0.079
11,XRCC6 (UniProt P12956),inactive: -0.023
12,YY1 (UniProt P25490),inactive: 0.069
13,ZFYVE9 (UniProt O95405),inactive: 0.09
14,XPNPEP3 (UniProt Q9NQH7),inactive: -0.08
15,ZFAND2B (UniProt Q8WV99),inactive: 0.049
16,ZDHHC17 (UniProt Q8IUH5),inactive: -0.086
17,YWHAB (UniProt P31946),inactive: -0.048
18,XPO1 (UniProt O14980),inactive: -0.061
19,ZNF143 (UniProt P52747),inactive: 0.19
20,YBX1 (UniProt P67809),inactive: 0.231

row,Target,log2 fold change
1,ZER1 (UniProt Q7Z7L7),inactive: 0.012
2,ZDHHC14 (UniProt Q8IZN3),inactive: -0.065
3,YWHAQ (UniProt P27348),inactive: -0.063
4,YAE1 (UniProt Q9NRH1),inactive: 0.564
5,ZC3HC1 (UniProt Q86WB0),inactive: -0.106
6,ZC3H18 (UniProt Q86VM9),inactive: 0.11
7,YOD1 (UniProt Q5VVQ6),inactive: -0.011
8,YIPF5 isoform 3 (UniProt Q969M3),inactive: 0.091
9,YIPF6 (UniProt Q96EC8),inactive: -0.011
10,XPO5 (UniProt Q9HAV4),inactive: -0.053
11,YWHAZ (UniProt P63104),inactive: -0.051
12,XPO6 (UniProt Q96QU8),active: 0.767
13,YLPM1 (UniProt P49750),inactive: 0.046
14,ZDHHC5 (UniProt Q9C0B5),inactive: -0.001
15,XPNPEP1 isoform 3 (UniProt Q9NQW7),inactive: -0.014
16,ZNF217 (UniProt O75362),inactive: 0.006
17,ZFAND6 (UniProt Q6FIF0),inactive: 0.027
18,ZC3H8 (UniProt Q8N5P1),inactive: 0.106
19,YBX3 isoform 2 (UniProt P16989),inactive: 0.248

# Compound: CCCS(=O)(=O)Nc1ccc(F)c(C(=O)c2c[nH]c3ncc(-c4ccc(Cl)cc4)cc23)c1F [vemurafenib]
# Assay: as above
# Method in brief: as §1
row,Target,log2 fold change
1,YJU2 (UniProt Q9BW85),inactive: -0.05
2,ZFAND5 (UniProt O76080),inactive: -0.106
3,ZNF24 (UniProt P17028),inactive: -0.133
4,ZFPL1 (UniProt O95159),inactive: 0.021
5,ZMYM3 (UniProt Q14202),inactive: -0.109
6,XRCC5 (UniProt P13010),inactive: 0.115
7,ZMAT2 (UniProt Q96NC0),inactive: -0.021
8,YARS (UniProt P54577),inactive: 0.038
9,YIPF4 (UniProt Q9BSR8),inactive: 0.03
10,ZFP91 (UniProt Q96JP5),inactive: -0.071
11,XRCC6 (UniProt P12956),inactive: 0.059
12,YY1 (UniProt P25490),inactive: 0.03
13,ZFYVE9 (UniProt O95405),inactive: -0.011
14,XPNPEP3 (UniProt Q9NQH7),inactive: 0.011
15,ZFAND2B (UniProt Q8WV99),inactive: 0.022
16,ZDHHC17 (UniProt Q8IUH5),inactive: 0.016
17,YWHAB (UniProt P31946),inactive: 0.021
18,XPO1 (UniProt O14980),inactive: 0.086
19,ZNF143 (UniProt P52747),inactive: 0.029
20,YBX1 (UniProt P67809),inactive: -0.12

row,Target,log2 fold change
1,ZER1 (UniProt Q7Z7L7),inactive: -0.033
2,ZDHHC14 (UniProt Q8IZN3),inactive: 0.159
3,YWHAQ (UniProt P27348),inactive: 0.284
4,YAE1 (UniProt Q9NRH1),inactive: 0.019
5,ZC3HC1 (UniProt Q86WB0),inactive: 0.09
6,ZC3H18 (UniProt Q86VM9),inactive: -0.025
7,YOD1 (UniProt Q5VVQ6),inactive: -0.001
8,YIPF5 isoform 3 (UniProt Q969M3),inactive: -0.021
9,YIPF6 (UniProt Q96EC8),inactive: -0.15
10,XPO5 (UniProt Q9HAV4),inactive: 0.013
11,YWHAZ (UniProt P63104),inactive: 0.037
12,XPO6 (UniProt Q96QU8),inactive: 0.082
13,YLPM1 (UniProt P49750),inactive: 0.017
14,ZDHHC5 (UniProt Q9C0B5),inactive: -0.021
15,XPNPEP1 isoform 3 (UniProt Q9NQW7),inactive: 0
16,ZNF217 (UniProt O75362),inactive: 0.044
17,ZFAND6 (UniProt Q6FIF0),inactive: -0.024
18,ZC3H8 (UniProt Q8N5P1),inactive: -0.071
19,YBX3 isoform 2 (UniProt P16989),inactive: -0.119
